The list is a part of this screen's results and no random one: it gathers tests that were run many times, whatever their T/C, doses with no T/C, and many T/C values between a quarter and a half above the control. Further doses and runs are listed elsewhere. T/C gives the treated animals as a percentage of the vehicle group. Some doses have a count of surviving animals in place of a T/C: the source files T/C as zero there, which appears to mark a toxic dose or a test without result, not a measured value. Some survivor counts are full or nearly so, which does not show that the dose was tolerated: the source hardly ever lists a survival T/C far under the control, and the zero likely stands for such cases as well. Survivors were counted at the toxicity check, usually on the fifth day, unless a day is given; later deaths do not show. Schedule codes are those of the source, read here as Q, the interval in days (D) or hours (H), X, the number of doses. Some entries were tested several times; their values stand side by side, smallest first. For survival time, this PubChem deposit counts one and a half times the control or more as active, and values a quarter to a half above the control carry no call in these data; other NCI protocols may use other cut-offs.
System: L1210 leukemia ip in BDF1 mice, survival T/C
Assay: NCI In Vivo Anticancer Drug Screen. Data for tumor model L1210 Leukemia (intraperitoneal) in B6D2F1 (BDF1) mice
Settings: T/C endpoint: mean survival time, higher T/C = longer survival
[1] = dose: 200.0 mg/kg/injection, schedule: Q01DX009 (ip), vehicle: saline
[2] = dose: 400.0 mg/kg/injection, schedule: Q04DX003 (ip), vehicle: saline
[3] = dose: 400.0 mg/kg/injection, schedule: Q01DX009 (ip), vehicle: saline
[4] = dose: 200.0 mg/kg/injection, schedule: Q01DX001 (ip), vehicle: saline
[5] = dose: 100.0 mg/kg/injection, schedule: Q01DX001 (ip), vehicle: saline
[6] = dose: 400.0 mg/kg/injection, schedule: Q01DX001 (ip), vehicle: saline
[7] = dose: 400.0 mg/kg/injection, schedule: Q04DX003 (ip), vehicle: saline with Tween-80
[8] = dose: 400.0 mg/kg/injection, schedule: Q01DX001 (ip), vehicle: carboxymethylcellulose (CMC)
[9] = dose: 200.0 mg/kg/injection, schedule: Q04DX003 (ip), vehicle: saline
[10] = dose: 100.0 mg/kg/injection, schedule: Q01DX001 (ip), vehicle: saline with Tween-80
[11] = dose: 200.0 mg/kg/injection, schedule: Q01DX001 (ip), vehicle: saline with Tween-80
[12] = dose: 400.0 mg/kg/injection, schedule: Q01DX009 (ip), vehicle: Klucel (hydroxypropylcellulose) (HPC)

In the case of `CC(C)N(C(=O)CSc1c(Cl)c(Cl)c(Cl)c(Cl)c1Cl)C(C)C`, the survivor count (dose: 400.0 mg/kg/injection, schedule: Q04DX002 (ip), vehicle: other) was 1 of 3 and 3 of 6 and the survivor count (dose: 400.0 mg/kg/injection, schedule: Q04DX003 (ip), vehicle: other) was 1 of 6.
With `CC(C)(C)CC(C)(C)c1ccc(OCCO)cc1` the survivor count [1] was 1 of 6 and the survivor count [2] was 0 of 6.
In the case of `CC(=O)Oc1c(I)cc(I)cc1C(=O)Nc1ccc(Cl)cc1`, the survivor count (dose: 200.0 mg/kg/injection, schedule: Q01DX009 (ip), vehicle: saline with Tween-80) was 3 of 3.
With `CN(C)N=Nc1cn(C2OC(CO)C(O)C2O)c(=O)[nH]c1=O` (stereo not drawn) the T/C [3] was 130 % of control.
With `Cc1ccc(C(=O)C(C)(C)C)c(C)c1` the survivor count (dose: 100.0 mg/kg/injection, schedule: Q01DX009 (ip), vehicle: saline) was 6 of 6, the survivor count [1] was 6 of 6 and the survivor count [3] was 5 of 6.
`O=C(O)c1c(O)c2cc(Cl)ccc2oc1=O` was tested, and the survivor count [4] was 2 of 6.
In the case of `CC[N+](CC)(CCO)CCCCCCCCCC[N+](CC)(CC)CCO`, the survivor count [5] was 1 of 6, the survivor count [4] was 0 of 6 and the survivor count [6] was 0 of 6.
With `CC1CN1C1=C(Br)C(=O)C(N2CC2C)=C(Br)C1=O` (stereo not drawn) the survivor count (dose: 25.0 mg/kg/injection, schedule: Q01DX009 (ip), vehicle: Klucel (hydroxypropylcellulose) (HPC)) was 0 of 6 and the survivor count (dose: 50.0 mg/kg/injection, schedule: Q04DX003 (ip), vehicle: saline with Tween-80) was 0 of 6.
`COC1OC2COc3ccccc3OC2C2C1N2C(=N)N[N+](=O)[O-]` (stereo not drawn) was tested, and the T/C (dose: 80.0 mg/kg/injection, schedule: Q04DX002 (ip), vehicle: saline) was 125 % of control.
In the case of `CCCCc1ccc(-n2cnc3c(=O)[nH]c(N)nc32)cc1`, the survivor count [7] was 6 of 6.
`CN=C(N)NCCCCCCCCNC(N)=NC` was tested, and the survivor count (dose: 40.0 mg/kg/injection, schedule: Q01DX001 (ip), vehicle: saline) was 0 of 4, the survivor count (dose: 50.0 mg/kg/injection, schedule: Q01DX001 (ip), vehicle: saline) was 0 of 4 and the survivor count (dose: 80.0 mg/kg/injection, schedule: Q01DX001 (ip), vehicle: saline) was 0 of 4. The survivor count [5] was 0 of 4, the survivor count [4] was 0 of 4 and the survivor count [6] was 0 of 4.
`C[N+](C)(C)N1C(=O)C2C3c4ccccc4C(C2C1=O)[n+]1ccccc13` (stereo not drawn) was tested, and the survivor count (dose: 37.5 mg/kg/injection, schedule: Q01DX001 (ip), vehicle: other) was 0 of 6, the survivor count (dose: 75.0 mg/kg/injection, schedule: Q01DX001 (ip), vehicle: other) was 3 of 6 and the survivor count (dose: 150.0 mg/kg/injection, schedule: Q01DX001 (ip), vehicle: other) was 0 of 6. The survivor count (dose: 300.0 mg/kg/injection, schedule: Q01DX001 (ip), vehicle: other) was 0 of 6.
With `NC(=S)N/N=C/c1cc2c(cc1[N+](=O)[O-])OCO2` the survivor count [8] was 0 of 4.
In the case of `O=C(Nc1cccc(Cl)c1Cl)Oc1ccc(OCc2ccccc2)cc1`, the survivor count (dose: 200.0 mg/kg/injection, schedule: Q01DX009 (ip), vehicle: Klucel (hydroxypropylcellulose) (HPC)) was 6 of 6.
In the case of `NC(=O)NNC(O)(C(F)(F)F)C(F)(F)F`, the survivor count [8] was 0 of 4.
`Cc1ccccc1NC(=O)CI` was tested, and the survivor count (dose: 75.0 mg/kg/injection, schedule: Q01DX009 (ip), vehicle: Klucel (hydroxypropylcellulose) (HPC)) was 0 of 6, the survivor count (dose: 150.0 mg/kg/injection, schedule: Q01DX009 (ip), vehicle: Klucel (hydroxypropylcellulose) (HPC)) was 0 of 6 and the survivor count (dose: 300.0 mg/kg/injection, schedule: Q01DX009 (ip), vehicle: Klucel (hydroxypropylcellulose) (HPC)) was 0 of 6.
`O=C(C[n+]1cccc(Cl)c1)c1ccccc1` was tested, and the survivor count (dose: 12.5 mg/kg/injection, schedule: Q04DX003 (ip), vehicle: saline) was 0 of 6, the survivor count (dose: 25.0 mg/kg/injection, schedule: Q04DX003 (ip), vehicle: saline) was 0 of 6 and the survivor count (dose: 50.0 mg/kg/injection, schedule: Q04DX003 (ip), vehicle: saline) was 0 of 6. For the same molecule, the survivor count (dose: 100.0 mg/kg/injection, schedule: Q04DX003 (ip), vehicle: saline) was 0 of 6, the survivor count [9] was 0 of 6 and the survivor count [2] was 0 of 6.
With `CCOC(=O)C(O)c1cccc(OC)c1` (stereo not drawn) the survivor count (dose: 200.0 mg/kg/injection, schedule: Q01DX009 (ip), vehicle: saline sonified) was 6 of 6.
For `C1CCC2C(C1)NC1CCCCC12` (stereo not drawn), the survivor count [9] was 0 of 6 and the survivor count [2] was 0 of 6.
`CCC1(O)C(=O)OCc2c1c(Br)c(-c1ccccc1)n(C)c2=O` (stereo not drawn) was tested, and the T/C [10] was 125 % of control.
For `CCN(CC)CC(=O)NCC(CCN(C)C)(c1cccc2ccccc12)C(C)C` (stereo not drawn), the survivor count [2] was 0 of 6.
In the case of `C[N+](C)(Cc1ccccc1)C1c2ccccc2-c2ccc(Br)cc21` (stereo not drawn), the survivor count (dose: 100.0 mg/kg/injection, schedule: Q04DX003 (ip), vehicle: Klucel (hydroxypropylcellulose) (HPC)) was 0 of 6, the survivor count (dose: 200.0 mg/kg/injection, schedule: Q04DX003 (ip), vehicle: Klucel (hydroxypropylcellulose) (HPC)) was 0 of 6 and the survivor count (dose: 400.0 mg/kg/injection, schedule: Q04DX003 (ip), vehicle: Klucel (hydroxypropylcellulose) (HPC)) was 0 of 6.
With `COc1ccc(CCO)cc1OC` the survivor count (dose: 100.0 mg/kg/injection, schedule: Q01DX001 (ip), vehicle: carboxymethylcellulose (CMC)) was 4 of 4 and the survivor count (dose: 200.0 mg/kg/injection, schedule: Q01DX001 (ip), vehicle: carboxymethylcellulose (CMC)) was 4 of 4.
`COc1ccc2c(Nc3ccc(NS(C)(=O)=O)cc3)c3ccccc3nc2c1` was tested, and the T/C (dose: 6.25 mg/kg/injection, schedule: Q01DX009 (sc), vehicle: saline) was 137 % of control and the T/C (dose: 12.5 mg/kg/injection, schedule: Q01DX009 (sc), vehicle: saline) was 145 % of control.
With `N#CC(c1ccc(Cl)cc1)C(C/C(=N/Nc1ccc([N+](=O)[O-])cc1[N+](=O)[O-])c1ccccc1)c1ccccc1` (stereo not drawn) the survivor count [10] was 6 of 6, the survivor count [11] was 6 of 6 and the survivor count (dose: 400.0 mg/kg/injection, schedule: Q01DX001 (ip), vehicle: saline with Tween-80) was 5 of 6.
In the case of `Cc1cccc(NC(=O)/C=N/O)c1C`, the survivor count (dose: 300.0 mg/kg/injection, schedule: Q04DX003 (ip), vehicle: Klucel (hydroxypropylcellulose) (HPC)) was 5 of 6.
`CCCCCCCCCC/C=C/c1c(C)[nH]c2ccccc2c1=O` was tested, and the survivor count (dose: 200.0 mg/kg/injection, schedule: Q01DX009 (ip), vehicle: alcohol) was 0 of 6 and the survivor count (dose: 400.0 mg/kg/injection, schedule: Q01DX009 (ip), vehicle: alcohol) was 0 of 6.
For `Cc1cccc(C2NC(=O)N3C(c4cccc(C)c4)NC(=O)N23)c1` (stereo not drawn), the survivor count (dose: 400.0 mg/kg/injection, schedule: Q01DX009 (ip), vehicle: gum acacia) was 6 of 6.
With `O=C(C1C2C=CC(C2)C1C(=O)N1CCCCC1)N1CCCCC1` (stereo not drawn) the survivor count [7] was 0 of 3.
For `CC1=CC(=C2C=C(C)C(=O)C(C)=C2)C=C(C)C1=O`, the survivor count [11] was 3 of 3.
In the case of `CSc1ccc(NC(=O)Nc2ccc(Cl)cc2C(=O)c2ccccc2)cc1`, the survivor count [12] was 6 of 6.
`CC(=O)OCC1OC(N2C(=O)/C(=C/c3cccs3)SC2=S)C(OC(C)=O)C(OC(C)=O)C1OC(C)=O` (stereo not drawn) was tested, and the survivor count (dose: 400.0 mg/kg/injection, schedule: Q01DX005 (ip), vehicle: other) was 0 of 6.
With `Cc1ccc(C(C)C)cc1NC(=O)Nc1ccccc1F` the survivor count [12] was 6 of 6.
With `CC(C)(C)c1cc(CN2CCCC(O)C2)c(O)c(-c2ccccc2)c1` (stereo not drawn) the survivor count [2] was 2 of 6.
In the case of `NC(=O)C(N)Cc1ccc(OCc2ccccc2)c(OCc2ccccc2)c1` (stereo not drawn), the survivor count (dose: 400.0 mg/kg/injection, schedule: Q01DX009 (ip), vehicle: saline with Tween-80) was 3 of 6.
With `O=C(Nc1ccc(CCO)cc1)Nc1cc(C(F)(F)F)ccc1Cl` the survivor count [12] was 1 of 6.
With `CCCCCCCCCCCCCCCCS(=O)(=O)N/N=C/c1ccccc1O` the survivor count [8] was 2 of 4.
With `CC(=O)Oc1ccc(/C=C/C(=O)O)cc1OC(C)=O` the survivor count (dose: 100.0 mg/kg/injection, schedule: Q04DX002 (ip), vehicle: saline with Tween-80) was 3 of 3.

Source: PubChem BioAssay AID248 (DTP/NCI, 2004)
